End groups of sequences in plain letters are not given here.
Assay: peptide synthesis
Conditions: whole synthesis, 220 nm

| Sequence | final HPLC purity [%] |
| --- | --- |
| STSQPWQR | 97.25 |
| SPSQPWAR | 98.53 |
| SPSQPAQR | 97.97 |
| STSQSWQR | 98.09 |
| SSQQWQRP | 99.1 |
| SPSQPWQR (Ahx linker; listed as Homo sapiens) | 98.2 |
| SSSQQWQR (Ahx linker; listed as Mus musculus) | 98.6 |
| SPAQPWQR | 98.45 |
| SPSQPWQA | 98.17 |
| SSSQSWQR | 98.62 |
| PWQRPWQR | 97.55 |
| QWQRPWQR | 98.37 |
| PSQPWQRK | 95.8 |
| STSQTWQR | 98.89 |
| SPSQSWQR | 98.54 |
| SPKQPWQR | 96.12 |
| QWQRPLLR | 98.9 |

| Sequence | final HPLC purity [%] |
| --- | --- |
| SPSAPWQR | 96.32 |
| KPSQPWQR | 96.15 |
| APSQPWQR | 98.74 |
| SSSQPWQR | 98.83 |
| SPSQTWQR | 97.86 |
| QPWQRGGGGSQPWQR | 91.6 |
| LSSSQQWQ | 98.1 |
| QPWQRSQPWQR | 91.61 |
| SPSQQWQR | 99.04 |
| STSQQWQR | 97.84 |
| SASQPWQR | 97 |
| SSSQTWQR | 98 |
| SPSQAWQR | 98.13 |
| KKSQPWQR | 96.6 |
| SQQWQRPL | 97.7 |
| SKSQPWQR | 96.12 |
